Only a part is listed here, and it is no random draw.
These targets were tested with COC(=O)C#Cc1ccccc1 [methyl 3-phenylpropiolate] (assay: log2 ratio of iodoacetamide-alkyne labeling of the cysteine site, DMSO over compound (competition); higher = stronger covalent engagement of the cysteine by the compound, active = 1 or more). Conditions: 500 µM; treatment time 1 h; system: HEK293T cell lysate.
Method in brief: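 Electrophile (500 µM) or vehicle was added to HEK293T lysate (2 mg/mL) for 1 h at ambient temperature before iodoacetamide alkyne labelling (1 h) and click coupling to sCIP-TMT reagents. After pooling, overnight trypsin digestion at 37 °C, streptavidin enrichment and acid elution, peptides were measured by Orbitrap Eclipse LC-MS/MS with FAIMS and quantified in FragPipe. Each cysteine's log2 competition ratio compares mean control-channel with mean compound-channel reporter intensity, control over compound. Data came from duplicate channels across three replicates, excluding cysteines quantified in only one replicate.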

Protein sequences, listed by entry. Tags and fused reporters are not part of them. Lines headed by an entry give the natural chain unless they say otherwise; changes in a name come on top.
UniProt Q9Y6I9: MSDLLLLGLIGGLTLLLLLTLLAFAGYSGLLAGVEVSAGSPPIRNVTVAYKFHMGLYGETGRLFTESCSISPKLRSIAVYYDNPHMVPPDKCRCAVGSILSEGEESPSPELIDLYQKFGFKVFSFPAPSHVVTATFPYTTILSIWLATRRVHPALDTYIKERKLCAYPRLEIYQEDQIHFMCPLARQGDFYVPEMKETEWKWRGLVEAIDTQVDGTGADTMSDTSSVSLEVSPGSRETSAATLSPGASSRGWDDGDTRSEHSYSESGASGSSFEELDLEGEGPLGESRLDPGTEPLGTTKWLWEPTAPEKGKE
UniProt Q9Y490: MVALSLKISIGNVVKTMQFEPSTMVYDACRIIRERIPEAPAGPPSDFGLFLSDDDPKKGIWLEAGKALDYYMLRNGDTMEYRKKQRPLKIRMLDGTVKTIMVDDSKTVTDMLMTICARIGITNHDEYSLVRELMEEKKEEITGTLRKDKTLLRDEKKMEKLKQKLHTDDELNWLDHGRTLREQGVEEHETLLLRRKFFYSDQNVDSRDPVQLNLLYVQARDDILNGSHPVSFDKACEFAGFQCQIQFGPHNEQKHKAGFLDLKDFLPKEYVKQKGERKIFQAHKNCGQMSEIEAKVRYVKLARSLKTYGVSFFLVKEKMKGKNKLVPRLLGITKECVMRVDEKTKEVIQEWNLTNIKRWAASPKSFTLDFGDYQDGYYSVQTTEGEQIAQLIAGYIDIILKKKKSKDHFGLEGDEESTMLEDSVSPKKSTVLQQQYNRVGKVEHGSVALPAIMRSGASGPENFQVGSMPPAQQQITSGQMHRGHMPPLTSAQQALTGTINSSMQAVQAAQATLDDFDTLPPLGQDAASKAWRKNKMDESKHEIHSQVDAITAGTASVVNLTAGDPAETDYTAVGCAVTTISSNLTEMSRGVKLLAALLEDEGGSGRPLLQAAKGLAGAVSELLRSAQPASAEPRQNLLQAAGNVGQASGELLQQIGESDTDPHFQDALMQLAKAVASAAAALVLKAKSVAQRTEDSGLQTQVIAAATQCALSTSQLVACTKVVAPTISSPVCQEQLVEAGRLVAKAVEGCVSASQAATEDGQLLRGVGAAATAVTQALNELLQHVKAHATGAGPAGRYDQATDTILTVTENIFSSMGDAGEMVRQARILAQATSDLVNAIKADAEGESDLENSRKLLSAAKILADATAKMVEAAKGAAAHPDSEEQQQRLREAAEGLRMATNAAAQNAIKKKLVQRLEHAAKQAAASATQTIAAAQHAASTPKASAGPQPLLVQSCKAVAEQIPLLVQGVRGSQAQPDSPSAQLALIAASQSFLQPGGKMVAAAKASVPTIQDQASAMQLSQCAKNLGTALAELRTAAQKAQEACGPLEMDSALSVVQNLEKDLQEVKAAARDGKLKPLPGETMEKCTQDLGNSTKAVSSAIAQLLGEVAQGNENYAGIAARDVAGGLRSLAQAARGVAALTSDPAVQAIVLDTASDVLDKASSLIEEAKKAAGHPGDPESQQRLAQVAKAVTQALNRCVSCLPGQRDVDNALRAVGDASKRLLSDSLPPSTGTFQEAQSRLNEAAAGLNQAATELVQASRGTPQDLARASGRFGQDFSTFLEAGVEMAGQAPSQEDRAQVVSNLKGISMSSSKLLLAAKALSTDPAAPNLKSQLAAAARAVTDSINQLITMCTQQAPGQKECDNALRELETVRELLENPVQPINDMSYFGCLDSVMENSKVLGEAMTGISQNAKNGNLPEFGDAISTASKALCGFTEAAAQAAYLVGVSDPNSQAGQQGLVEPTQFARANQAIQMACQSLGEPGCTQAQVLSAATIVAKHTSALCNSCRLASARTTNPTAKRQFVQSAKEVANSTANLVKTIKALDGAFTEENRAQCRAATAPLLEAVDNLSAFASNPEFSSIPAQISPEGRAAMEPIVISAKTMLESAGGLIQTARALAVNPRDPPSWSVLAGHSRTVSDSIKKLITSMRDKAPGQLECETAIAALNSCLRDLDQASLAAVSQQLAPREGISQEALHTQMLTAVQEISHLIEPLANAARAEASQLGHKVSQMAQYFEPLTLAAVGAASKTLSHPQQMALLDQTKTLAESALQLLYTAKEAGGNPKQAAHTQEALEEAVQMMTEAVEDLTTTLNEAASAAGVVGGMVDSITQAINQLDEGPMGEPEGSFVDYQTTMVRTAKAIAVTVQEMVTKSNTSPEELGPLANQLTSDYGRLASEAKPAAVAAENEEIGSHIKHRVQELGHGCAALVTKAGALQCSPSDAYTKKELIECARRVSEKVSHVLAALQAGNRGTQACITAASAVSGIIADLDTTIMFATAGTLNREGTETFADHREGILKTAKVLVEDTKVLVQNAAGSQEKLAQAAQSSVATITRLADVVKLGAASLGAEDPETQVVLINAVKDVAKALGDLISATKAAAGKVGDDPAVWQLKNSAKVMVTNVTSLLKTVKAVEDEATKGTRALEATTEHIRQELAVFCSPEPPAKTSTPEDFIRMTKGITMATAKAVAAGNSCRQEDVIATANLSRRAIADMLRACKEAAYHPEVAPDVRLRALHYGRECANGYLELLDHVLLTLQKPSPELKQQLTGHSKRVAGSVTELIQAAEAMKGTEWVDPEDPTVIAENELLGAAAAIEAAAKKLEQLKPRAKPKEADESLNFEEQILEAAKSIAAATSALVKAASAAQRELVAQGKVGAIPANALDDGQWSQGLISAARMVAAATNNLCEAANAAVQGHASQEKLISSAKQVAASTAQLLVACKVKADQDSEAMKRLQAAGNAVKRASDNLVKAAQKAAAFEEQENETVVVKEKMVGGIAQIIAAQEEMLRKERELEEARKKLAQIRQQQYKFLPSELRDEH
UniProt Q9Y6X9: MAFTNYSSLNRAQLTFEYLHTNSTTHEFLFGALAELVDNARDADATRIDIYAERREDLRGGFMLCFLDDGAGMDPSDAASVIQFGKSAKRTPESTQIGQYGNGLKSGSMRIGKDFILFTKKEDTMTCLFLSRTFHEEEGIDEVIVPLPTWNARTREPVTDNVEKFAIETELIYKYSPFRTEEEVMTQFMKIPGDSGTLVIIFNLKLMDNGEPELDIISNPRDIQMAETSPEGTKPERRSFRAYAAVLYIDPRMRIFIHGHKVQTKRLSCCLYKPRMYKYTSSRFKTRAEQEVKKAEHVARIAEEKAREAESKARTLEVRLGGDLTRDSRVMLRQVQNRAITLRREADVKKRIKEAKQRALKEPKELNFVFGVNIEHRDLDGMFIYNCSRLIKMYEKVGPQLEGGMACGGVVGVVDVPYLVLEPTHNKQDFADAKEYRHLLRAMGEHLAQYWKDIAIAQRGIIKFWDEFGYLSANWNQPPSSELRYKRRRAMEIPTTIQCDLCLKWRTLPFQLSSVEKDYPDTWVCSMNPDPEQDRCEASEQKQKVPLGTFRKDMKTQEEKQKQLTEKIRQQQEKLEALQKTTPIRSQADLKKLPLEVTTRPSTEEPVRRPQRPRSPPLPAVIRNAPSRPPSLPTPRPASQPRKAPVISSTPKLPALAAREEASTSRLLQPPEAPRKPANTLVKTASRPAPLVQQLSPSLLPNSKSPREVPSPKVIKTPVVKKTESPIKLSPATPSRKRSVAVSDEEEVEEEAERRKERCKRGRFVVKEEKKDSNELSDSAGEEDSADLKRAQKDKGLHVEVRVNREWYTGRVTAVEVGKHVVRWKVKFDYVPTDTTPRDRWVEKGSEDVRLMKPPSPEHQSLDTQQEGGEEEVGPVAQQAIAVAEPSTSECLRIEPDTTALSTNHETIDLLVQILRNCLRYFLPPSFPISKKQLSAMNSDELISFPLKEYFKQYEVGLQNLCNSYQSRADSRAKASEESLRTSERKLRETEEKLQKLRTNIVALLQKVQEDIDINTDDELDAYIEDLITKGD
UniProt Q9Y5M8: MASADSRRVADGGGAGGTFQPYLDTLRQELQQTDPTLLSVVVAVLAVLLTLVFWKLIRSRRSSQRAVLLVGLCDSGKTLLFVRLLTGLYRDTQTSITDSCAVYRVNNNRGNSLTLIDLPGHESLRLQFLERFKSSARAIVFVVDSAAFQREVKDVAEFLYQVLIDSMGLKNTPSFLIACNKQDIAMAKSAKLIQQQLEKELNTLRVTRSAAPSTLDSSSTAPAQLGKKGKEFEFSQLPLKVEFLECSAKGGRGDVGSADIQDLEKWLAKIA
UniProt Q9Y4F5: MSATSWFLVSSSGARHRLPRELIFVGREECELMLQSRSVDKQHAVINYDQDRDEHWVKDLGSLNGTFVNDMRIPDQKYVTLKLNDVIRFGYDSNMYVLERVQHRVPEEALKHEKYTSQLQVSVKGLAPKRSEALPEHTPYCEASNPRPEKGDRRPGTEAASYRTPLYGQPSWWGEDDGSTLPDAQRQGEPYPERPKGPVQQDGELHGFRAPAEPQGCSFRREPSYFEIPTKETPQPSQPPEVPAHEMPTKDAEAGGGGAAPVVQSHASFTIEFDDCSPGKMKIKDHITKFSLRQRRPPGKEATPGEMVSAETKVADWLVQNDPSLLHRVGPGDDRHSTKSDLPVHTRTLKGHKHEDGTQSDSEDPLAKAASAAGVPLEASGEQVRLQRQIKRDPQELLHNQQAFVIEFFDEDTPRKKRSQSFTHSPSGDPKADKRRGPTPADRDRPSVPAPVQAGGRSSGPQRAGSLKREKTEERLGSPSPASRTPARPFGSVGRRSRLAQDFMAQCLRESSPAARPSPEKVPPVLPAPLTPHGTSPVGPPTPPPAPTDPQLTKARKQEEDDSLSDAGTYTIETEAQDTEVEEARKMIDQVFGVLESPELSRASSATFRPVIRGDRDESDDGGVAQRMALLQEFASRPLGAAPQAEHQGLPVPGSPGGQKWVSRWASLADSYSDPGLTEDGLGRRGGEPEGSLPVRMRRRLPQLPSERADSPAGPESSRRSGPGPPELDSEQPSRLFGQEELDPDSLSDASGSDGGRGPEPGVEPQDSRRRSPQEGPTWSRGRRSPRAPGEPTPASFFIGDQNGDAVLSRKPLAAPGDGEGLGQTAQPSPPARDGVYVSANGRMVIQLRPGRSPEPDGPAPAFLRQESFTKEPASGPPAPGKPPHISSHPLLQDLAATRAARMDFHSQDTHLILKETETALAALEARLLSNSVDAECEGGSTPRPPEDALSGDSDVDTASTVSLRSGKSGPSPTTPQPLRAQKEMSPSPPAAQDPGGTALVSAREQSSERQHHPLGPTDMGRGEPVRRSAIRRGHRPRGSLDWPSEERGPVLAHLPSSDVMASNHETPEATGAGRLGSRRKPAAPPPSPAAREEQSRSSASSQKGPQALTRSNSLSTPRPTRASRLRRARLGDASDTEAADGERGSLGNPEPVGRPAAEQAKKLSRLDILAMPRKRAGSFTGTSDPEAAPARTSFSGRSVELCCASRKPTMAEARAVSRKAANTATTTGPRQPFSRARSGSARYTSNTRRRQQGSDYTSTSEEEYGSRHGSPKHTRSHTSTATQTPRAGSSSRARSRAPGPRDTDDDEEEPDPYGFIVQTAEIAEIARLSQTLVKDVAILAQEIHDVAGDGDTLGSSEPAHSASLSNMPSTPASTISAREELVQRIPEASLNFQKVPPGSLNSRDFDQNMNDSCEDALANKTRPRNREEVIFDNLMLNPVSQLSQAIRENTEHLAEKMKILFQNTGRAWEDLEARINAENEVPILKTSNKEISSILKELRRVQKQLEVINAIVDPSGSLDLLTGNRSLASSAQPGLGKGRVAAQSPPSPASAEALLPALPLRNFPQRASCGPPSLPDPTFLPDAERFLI
UniProt Q9Y4Z0: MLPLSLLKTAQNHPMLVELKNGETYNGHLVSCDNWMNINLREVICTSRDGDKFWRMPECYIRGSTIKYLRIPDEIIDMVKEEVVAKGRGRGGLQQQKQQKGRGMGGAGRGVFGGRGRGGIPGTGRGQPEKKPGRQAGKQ
UniProt Q9Y5P6: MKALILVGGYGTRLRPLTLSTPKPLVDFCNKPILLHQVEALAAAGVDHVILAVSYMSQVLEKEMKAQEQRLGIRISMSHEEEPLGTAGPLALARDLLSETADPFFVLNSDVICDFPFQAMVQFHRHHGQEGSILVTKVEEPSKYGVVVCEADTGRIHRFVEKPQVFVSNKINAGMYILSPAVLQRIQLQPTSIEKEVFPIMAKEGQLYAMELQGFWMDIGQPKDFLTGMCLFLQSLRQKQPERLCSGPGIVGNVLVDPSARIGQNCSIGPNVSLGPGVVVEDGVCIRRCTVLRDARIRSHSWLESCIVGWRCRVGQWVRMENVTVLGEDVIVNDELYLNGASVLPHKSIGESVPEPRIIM

Target	log2 ratio of iodoacetamide-alkyne labeling
SNX5 C397 (UniProt Q9Y5X3)	inactive: 0.00495
TEX264 C165 (UniProt Q9Y6I9)	inactive: 0.476
LAS1L C504 (UniProt Q9Y4W2)	inactive: 0.286
USP16 C205 (UniProt Q9Y5T5)	inactive: -0.0573
UniProt Q9Y6E0_C394	inactive: 0.37
TLN1 C2161 (UniProt Q9Y490)	inactive: -0.0698
MORC2 C962 (UniProt Q9Y6X9)	inactive: 0.1
SRPRB C246 (UniProt Q9Y5M8)	inactive: 0.303
ARIH1 C327 (UniProt Q9Y4X5)	inactive: 0.0642
MAP3K4 C163 (UniProt Q9Y6R4)	inactive: 0.0336
TLN1 C1363 (UniProt Q9Y490)	inactive: 0.21
CEP170B C1570 (UniProt Q9Y4F5)	inactive: 0.401
USP16 C618 (UniProt Q9Y5T5)	inactive: 0.249
LSM4 C45 (UniProt Q9Y4Z0)	inactive: 0.104
AFG3L2 C525 (UniProt Q9Y4W6)	inactive: 0.198
UniProt Q9Y520_C895	inactive: 0.435
PPME1 C386 (UniProt Q9Y570)	active: 1.48
MAP3K4 C596 (UniProt Q9Y6R4)	inactive: 0.793
WIPI2 C393 (UniProt Q9Y4P8)	active: 1.22
TLN1 C1558 (UniProt Q9Y490)	inactive: 0.288
GMPPB C230 (UniProt Q9Y5P6)	inactive: -0.0616
UniProt Q9Y520_C481	inactive: 0.63

2 entries from above, as a markdown table:

| Target | log2 ratio of iodoacetamide-alkyne labeling |
| --- | --- |
| TLN1 C2161 (UniProt Q9Y490) | inactive: -0.0698 |
| MORC2 C962 (UniProt Q9Y6X9) | inactive: 0.1 |
